# In the supplement of paper PMC12819154, “High-throughput peptide-centric local stability assay extends protein–ligand identification to membrane proteins, tissues and bacteria” (Nature Structural & Molecular Biology, 2025):
# Protein sequences, listed by entry. Tags and fused reporters are not part of them. Lines headed by an entry give the natural chain unless they say otherwise; changes in a name come on top.
# UniProt Q63943: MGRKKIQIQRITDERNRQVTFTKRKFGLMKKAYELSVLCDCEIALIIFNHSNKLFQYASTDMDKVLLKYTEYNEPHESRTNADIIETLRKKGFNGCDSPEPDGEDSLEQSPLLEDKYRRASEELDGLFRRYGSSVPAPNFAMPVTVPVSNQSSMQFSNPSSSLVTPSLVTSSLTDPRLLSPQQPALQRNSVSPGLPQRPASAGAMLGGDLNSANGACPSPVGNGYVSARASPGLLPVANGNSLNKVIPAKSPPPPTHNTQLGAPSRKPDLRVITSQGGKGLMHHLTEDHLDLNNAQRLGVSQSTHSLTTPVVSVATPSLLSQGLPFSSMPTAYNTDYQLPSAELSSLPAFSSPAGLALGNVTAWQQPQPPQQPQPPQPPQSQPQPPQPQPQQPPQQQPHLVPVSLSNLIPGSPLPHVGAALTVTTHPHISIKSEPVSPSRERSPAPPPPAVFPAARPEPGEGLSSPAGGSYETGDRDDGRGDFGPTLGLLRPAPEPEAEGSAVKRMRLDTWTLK
# UniProt Q64012: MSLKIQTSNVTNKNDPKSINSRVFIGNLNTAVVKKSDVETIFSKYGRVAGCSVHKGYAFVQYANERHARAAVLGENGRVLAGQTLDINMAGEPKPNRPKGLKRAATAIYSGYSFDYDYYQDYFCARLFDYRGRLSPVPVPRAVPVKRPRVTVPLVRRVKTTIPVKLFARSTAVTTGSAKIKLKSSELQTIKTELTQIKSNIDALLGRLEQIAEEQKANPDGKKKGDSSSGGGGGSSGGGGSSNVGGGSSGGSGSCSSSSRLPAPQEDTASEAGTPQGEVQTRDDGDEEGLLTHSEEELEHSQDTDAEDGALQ
# UniProt Q63918: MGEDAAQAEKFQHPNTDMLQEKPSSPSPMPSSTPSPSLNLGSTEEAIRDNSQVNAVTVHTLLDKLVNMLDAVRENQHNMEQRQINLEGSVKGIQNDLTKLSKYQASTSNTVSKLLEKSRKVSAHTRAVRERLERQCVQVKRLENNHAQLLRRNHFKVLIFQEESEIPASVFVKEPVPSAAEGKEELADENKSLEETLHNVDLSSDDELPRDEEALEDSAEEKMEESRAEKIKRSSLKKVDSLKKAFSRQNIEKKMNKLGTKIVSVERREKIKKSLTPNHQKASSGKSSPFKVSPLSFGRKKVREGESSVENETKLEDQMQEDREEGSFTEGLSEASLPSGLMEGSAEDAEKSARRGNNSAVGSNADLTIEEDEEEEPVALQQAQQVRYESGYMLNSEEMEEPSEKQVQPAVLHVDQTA
# UniProt Q62255: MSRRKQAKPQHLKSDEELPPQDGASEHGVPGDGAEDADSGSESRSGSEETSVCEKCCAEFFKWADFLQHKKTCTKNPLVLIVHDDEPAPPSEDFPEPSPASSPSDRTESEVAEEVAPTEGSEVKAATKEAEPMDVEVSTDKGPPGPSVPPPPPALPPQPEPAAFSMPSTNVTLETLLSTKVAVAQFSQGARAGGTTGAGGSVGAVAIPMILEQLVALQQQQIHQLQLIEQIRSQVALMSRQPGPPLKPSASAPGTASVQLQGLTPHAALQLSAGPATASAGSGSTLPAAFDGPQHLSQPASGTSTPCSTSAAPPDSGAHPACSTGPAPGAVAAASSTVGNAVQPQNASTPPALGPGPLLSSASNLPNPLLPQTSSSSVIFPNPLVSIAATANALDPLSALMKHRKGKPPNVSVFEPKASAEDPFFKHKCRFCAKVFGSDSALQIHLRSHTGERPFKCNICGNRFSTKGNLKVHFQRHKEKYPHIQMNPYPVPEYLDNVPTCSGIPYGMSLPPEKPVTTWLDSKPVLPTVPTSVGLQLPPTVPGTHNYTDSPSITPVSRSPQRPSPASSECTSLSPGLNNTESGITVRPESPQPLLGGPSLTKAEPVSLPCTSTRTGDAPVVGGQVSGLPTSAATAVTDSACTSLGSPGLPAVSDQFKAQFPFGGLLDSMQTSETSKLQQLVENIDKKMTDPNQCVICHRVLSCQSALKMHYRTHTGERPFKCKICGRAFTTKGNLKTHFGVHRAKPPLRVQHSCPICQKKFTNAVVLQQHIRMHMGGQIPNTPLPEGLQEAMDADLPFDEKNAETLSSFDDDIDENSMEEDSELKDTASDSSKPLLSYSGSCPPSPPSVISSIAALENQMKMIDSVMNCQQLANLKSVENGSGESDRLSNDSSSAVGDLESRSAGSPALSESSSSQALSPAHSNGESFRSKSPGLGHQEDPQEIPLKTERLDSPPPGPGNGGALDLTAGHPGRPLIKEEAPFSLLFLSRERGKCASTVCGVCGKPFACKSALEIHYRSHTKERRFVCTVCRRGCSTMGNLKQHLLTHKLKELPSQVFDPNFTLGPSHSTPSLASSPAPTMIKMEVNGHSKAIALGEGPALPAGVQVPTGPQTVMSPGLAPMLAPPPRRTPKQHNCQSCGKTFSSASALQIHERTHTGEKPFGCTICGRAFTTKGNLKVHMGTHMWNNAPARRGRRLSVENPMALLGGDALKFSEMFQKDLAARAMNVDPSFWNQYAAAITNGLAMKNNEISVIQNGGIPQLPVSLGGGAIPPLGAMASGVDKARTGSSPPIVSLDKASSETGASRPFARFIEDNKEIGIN
# UniProt Q61334: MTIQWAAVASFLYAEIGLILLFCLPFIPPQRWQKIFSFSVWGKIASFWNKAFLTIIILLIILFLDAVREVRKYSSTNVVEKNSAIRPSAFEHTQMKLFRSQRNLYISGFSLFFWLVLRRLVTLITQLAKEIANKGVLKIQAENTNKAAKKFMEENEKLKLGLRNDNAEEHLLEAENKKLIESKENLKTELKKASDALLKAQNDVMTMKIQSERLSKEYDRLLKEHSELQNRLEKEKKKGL
# UniProt Q61768: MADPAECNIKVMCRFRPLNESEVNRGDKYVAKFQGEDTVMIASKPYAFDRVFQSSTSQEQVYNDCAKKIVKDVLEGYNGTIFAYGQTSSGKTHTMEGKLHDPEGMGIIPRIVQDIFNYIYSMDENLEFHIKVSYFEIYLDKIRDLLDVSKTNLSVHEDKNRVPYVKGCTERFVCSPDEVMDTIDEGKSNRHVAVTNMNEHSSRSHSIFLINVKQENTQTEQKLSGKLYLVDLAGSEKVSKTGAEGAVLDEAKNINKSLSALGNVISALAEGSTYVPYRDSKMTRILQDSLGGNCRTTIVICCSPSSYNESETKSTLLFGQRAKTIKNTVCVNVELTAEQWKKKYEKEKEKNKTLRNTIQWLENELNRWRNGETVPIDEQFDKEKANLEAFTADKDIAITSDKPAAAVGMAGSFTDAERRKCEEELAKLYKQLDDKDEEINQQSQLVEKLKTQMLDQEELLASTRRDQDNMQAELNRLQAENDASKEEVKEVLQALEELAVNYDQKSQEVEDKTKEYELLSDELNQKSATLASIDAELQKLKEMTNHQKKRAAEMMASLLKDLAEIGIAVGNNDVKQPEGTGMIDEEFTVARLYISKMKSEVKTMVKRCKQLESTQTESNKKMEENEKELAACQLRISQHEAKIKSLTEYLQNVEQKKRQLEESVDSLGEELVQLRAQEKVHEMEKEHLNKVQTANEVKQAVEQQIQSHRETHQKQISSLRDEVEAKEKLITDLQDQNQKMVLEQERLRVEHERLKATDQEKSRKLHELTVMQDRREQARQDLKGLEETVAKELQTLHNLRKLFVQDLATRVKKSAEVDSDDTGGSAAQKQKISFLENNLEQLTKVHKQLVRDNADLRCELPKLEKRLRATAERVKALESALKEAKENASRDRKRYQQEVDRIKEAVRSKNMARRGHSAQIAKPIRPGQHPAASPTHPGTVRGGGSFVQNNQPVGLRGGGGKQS
# UniProt Q62465: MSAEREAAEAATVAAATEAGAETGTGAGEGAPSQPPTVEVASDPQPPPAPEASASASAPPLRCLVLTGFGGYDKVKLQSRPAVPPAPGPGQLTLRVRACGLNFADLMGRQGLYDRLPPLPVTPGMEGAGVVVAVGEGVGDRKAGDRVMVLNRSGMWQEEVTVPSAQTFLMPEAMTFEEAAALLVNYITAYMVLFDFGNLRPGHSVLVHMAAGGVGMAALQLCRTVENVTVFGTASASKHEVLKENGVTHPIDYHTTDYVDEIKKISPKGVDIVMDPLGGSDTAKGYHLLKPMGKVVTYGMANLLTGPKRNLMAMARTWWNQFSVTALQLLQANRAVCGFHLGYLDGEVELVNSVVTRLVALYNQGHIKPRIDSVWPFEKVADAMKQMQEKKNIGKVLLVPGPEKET
# The other results are listed elsewhere or left out. Most values lie at the level of the controls, where differences are scatter.
# Compound: CN[C@@H]1C[C@H]2O[C@@](C)([C@@H]1OC)n1c3ccccc3c3c4c(c5c6ccccc6n2c5c31)C(=O)NC4 [staurosporine]
# Assay: log2 fold change of tryptic peptide abundance, ligand vs vehicle (limited proteolysis) (log2 ratio); higher = more trypsin-susceptible (destabilized)
# Conditions: ligand concentration: 20 uM; sample: mouse liver crude lysate; replicate design: treated separately
row,Target,log2 fold change
1,"UniProt Q63943 (peptide sequence: LLSPQQPALQR, peptide start residue: 178)",0.168
2,"UniProt Q64012 (peptide sequence: LEQIAEEQKANPDGKK, peptide start residue: 208)",0.788
3,"UniProt Q63918 (peptide sequence: YQASTSNTVSK, peptide start residue: 103)",0.143
4,"UniProt Q62255 (peptide sequence: LQQLVENIDKK, peptide start residue: 690)",-0.663
5,"UniProt Q61334 (peptide sequence: AQNDVMTMK, peptide start residue: 200)",0.142
6,"UniProt Q61768 (peptide sequence: VHEMEKEHLNK, peptide start residue: 680)",0.235
7,"UniProt Q62465 (peptide sequence: LVALYNQGHIKPR, peptide start residue: 358)",-0.365
